Experimental data taken from PMC5906681, “BRI1 and BAK1 interact with G proteins and regulate sugar-responsive growth and development in Arabidopsis” (Nature Communications, 2018).

B1: AGG1-cYFP (protein, UniProt Q9FDX9 1-98)
chain: MREETVVYEQEESVSHGGGKHRILAELARVEQEVAFLEKELKEVENTDIVSTVCEELLSVIEKGPDPLLPLTNGPLNLGWDRWFEGPNGGEGCRCLIL
B2: AGG2-cYFP (protein, UniProt Q93V47 1-100)
chain: MEAGSSNSSGQLSGRVVDTRGKHRIQAELKRLEQEARFLEEELEQLEKMDNASASCKEFLDSVDSKPDPLLPETTGPVNATWDQWFEGPKEAKRCGCSIL
B3: AGG3-cYFP (protein, UniProt Q6AWT8 1-251)
chain: MSAPSGGGEGGGKESAAGGVSSSSLAPSSLPPPRPKSPPEYPDLYGKRREAARVQMLEREIGFLEGEIKFIEGVQPASRCIKEVSDFVVANSDPLIPAQRKSRRSFRFWKWLCGPCLSLVSFCCCCQSKCSCHLRKPKCCNCTSCSCIGSKCCDGSCCSNICCCPRLSCPSCSCFRGCWCSCPDMSCCIPSCFRSCSCTRPSCLNKKKSSCCSCNCKIRWSSCFSCPKVRLCSCCFCNCKNLCSNPCCLAF
B4: RGS1-cYFP (protein, UniProt Q8H1F2 1-459)
chain: MASGCALHGGCPSDYVAVAISVICFFVLLSRSVLPCLIHKAPRTNSSSFWIPVIQVISSFNLLFSIMMSVNLLRFRTKHWWRYCYLWAVWIEGPLGFGLLMSCRITQAFQLYFIFVKKRLPPVKSYIFLPLVLLPWIFGAAIIHATKPLNDKCHMGLQWTFPVAGLHALYVLALIAFTRAVRHVEFRFDELRDLWKGILVSATSIVIWVTAFVLNEIHEEISWLQVASRFVLLVTGGILVVVFFSISSNQPLLSQISLKKRQNFEFQRMGQALGIPDSGLLFRKEEFRPVDPNEPLDKLLLNKRFRHSFMEFADSCYAGETLHFFEEVYEHGKIPEDDSIRRIYMARHIMEKFIVAGAEMELNLSHKTRQEILTTQDLTHTDLFKNALNEVMQLIKMNLVRDYWSSIYFIKFKEEESCHEAMHKEGYSFSSPRLSSVQGSDDPFYQEHMSKSSRCSSPG
B5: Myc-RGS1 (protein, UniProt Q8H1F2 1-459)
chain: B4 chain
B6: MBP-AGG1 (natural protein, Arabidopsis, UniProt Q9FDX9 1-98, looked up)
chain: B1 chain
notes: AGG1, Arabidopsis G protein gamma subunit 1; also called G protein gamma subunit; source: E. coli (pMAL-c2); not shown: MBP, N-terminal, kept
B7: MBP-AGG2 (natural protein, Arabidopsis, UniProt Q93V47 1-100, looked up)
chain: B2 chain
notes: AGG2, Arabidopsis G protein gamma subunit 2; also called G protein gamma subunit; source: E. coli (pMAL-c2); not shown: MBP, N-terminal, kept
B8: MBP-GPA1 (protein, UniProt P18064 1-383)
chain: MGLLCSRSRHHTEDTDENTQAAEIERRIEQEAKAEKHIRKLLLLGAGESGKSTIFKQIKLLFQTGFDEGELKSYVPVIHANVYQTIKLLHDGTKEFAQNETDSAKYMLSSESIAIGEKLSEIGGRLDYPRLTKDIAEGIETLWKDPAIQETCARGNELQVPDCTKYLMENLKRLSDINYIPTKEDVLYARVRTTGVVEIQFSPVGENKKSGEVYRLFDVGGQRNERRKWIHLFEGVTAVIFCAAISEYDQTLFEDEQKNRMMETKELFDWVLKQPCFEKTSFMLFLNKFDIFEKKVLDVPLNVCEWFRDYQPVSSGKQEIEHAYEFVKKKFEELYYQNTAPDRVDRVFKIYRTTALDQKLVKKTFKLVDETLRRRNLLEAGLL
B9: MBP-AGB1 (natural protein, Arabidopsis, UniProt P49177 1-377, looked up)
chain: MSVSELKERHAVATETVNNLRDQLRQRRLQLLDTDVARYSAAQGRTRVSFGATDLVCCRTLQGHTGKVYSLDWTPERNRIVSASQDGRLIVWNALTSQKTHAIKLPCAWVMTCAFSPNGQSVACGGLDSVCSIFSLSSTADKDGTVPVSRMLTGHRGYVSCCQYVPNEDAHLITSSGDQTCILWDVTTGLKTSVFGGEFQSGHTADVLSVSISGSNPNWFISGSCDSTARLWDTRAASRAVRTFHGHEGDVNTVKFFPDGYRFGTGSDDGTCRLYDIRTGHQLQVYQPHGDGENGPVTSIAFSVSGRLLFAGYASNNTCYVWDTLLGEVVLDLGLQQDSHRNRISCLGLSADGSALCTGSWDSNLKIWAFGGHRRVI
notes: AGB1, Arabidopsis G protein beta subunit; Cloned into the EcoR I and Pst I sites of pMAL-c2; also called G protein beta subunit; source: E. coli (pMAL-c2); not shown: MBP, N-terminal, kept
B10: GPA1-cYFP (protein, UniProt P18064 1-383)
chain: B8 chain
B11: AGB1-cYFP (protein, UniProt P49177 1-377)
chain: B9 chain

Tests used:
BAK1-nYFP (Arabidopsis) = BAK1-nYFP (Arabidopsis) (UniProt F4JIX9); assay: split reporter; BiFC; nYFP and cYFP fusions coexpressed in leaves of N. benthamiana by Agrobacterium GV3101; YFP fluorescence observed after 72 h
BAK1-GFP (Arabidopsis) = assay: co-IP; total proteins of transgenic Arabidopsis seedlings, GFP-Trap-A agarose beads; immunoblot with anti-GFP and anti-Myc or anti-HA; for BRI1-GFP with BAK1-HA seedlings treated with 0-6% glucose or mannitol for 4 or 24 h; for BRI1 with AGB1 also 2% glucose
[1] = target: GST-fused BAK1 kinase domain (Arabidopsis); assay: pull-down; about 15 μg GST fusion with about 30 μg MBP fusion in 900 μL TGH buffer (10% glycerol, 1% Triton X-100, 1.5 mM MgCl2, 150 mM NaCl, 1 mM EGTA, 50 mM HEPES, pH 7.5); 30 μL GST beads, about 1 h; immunoblot with anti-MBP and anti-GST; both purified
[2] = target: GST-fused BAK1 kinase domain (Arabidopsis); assay: condition: about 30 μg MBP fusion with about 15 μg GST fusion in 900 μL; pull-down; about 15 μg GST fusion with about 30 μg MBP fusion in 900 μL TGH buffer (10% glycerol, 1% Triton X-100, 1.5 mM MgCl2, 150 mM NaCl, 1 mM EGTA, 50 mM HEPES, pH 7.5); 30 μL GST beads, about 1 h; immunoblot with anti-MBP and anti-GST; both purified

Binder | binding (BAK1-nYFP (Arabidopsis)) | also measured
B1 | binds | 
B2 | binds | 
B3 | binds | 
B4 | binds | 
B5 |  | binding (BAK1-GFP (Arabidopsis)): binds
B6 |  | binding [1]: binds
B7 |  | binding [1]: binds
B8 |  | binding [2]: no binding
B9 |  | binding [2]: no binding
B10 | no binding | 
B11 | no binding | 

These are yes or no findings as the source states them, for the method shown. For some assays here: Binding can be weak; no strength is given. Sequences can lack the tags named with a protein. For some assays here: Binding seen in cells or lysates may run through a third protein.
